Experimental data from PubChem BioAssay AID192 (DTP/NCI, 2004).
The list is a part of this screen's results and no random one: it is rich in T/C values a quarter to a half above the control, in often repeated tests (any T/C) and in doses without a T/C. Other doses and runs of a compound stand elsewhere. T/C: endpoint of the treated group in % of that of the vehicle group. Some doses have a count of surviving animals in place of a T/C: the source files T/C as zero there, which appears to mark a toxic dose or a test without result, not a measured value. Some doses without a T/C left all or most animals alive at the check, yet need not have been tolerated: survival well below the control is almost never listed, so the zero probably covers shortened survival too. Survivors were counted at the toxicity check, usually on the fifth day, unless a day is given; later deaths do not show. Schedule codes are those of the source, read here as Q, the interval in days (D) or hours (H), X, the number of doses. Some entries were tested several times; their values stand side by side, smallest first. For survival time, this PubChem deposit counts one and a half times the control or more as active, and values a quarter to a half above the control carry no call in these data; other NCI protocols may use other cut-offs. Some T/C values carry the count of animals alive at the toxicity check (mostly the fifth day); without a count, all were alive then. Peptide text beside a SMILES is read from it. * marks the point of attachment. Boc = CC(C)(C)OC(=O)*

Test system: BDF1 mice, B16 melanoma ip, median survival T/C
Experiment: NCI In Vivo Anticancer Drug Screen. Data for tumor model B16 Melanoma (intraperitoneal) in B6D2F1 (BDF1) mice
Conditions: T/C endpoint: median survival time, higher T/C = longer survival
Method in brief: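 Values are ratios of treated (T) to vehicle-control (C) measurements of survival or tumor size in tumor-bearing mice.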

[1] = dose: 0.37 mg/kg/injection, schedule: Q01DX009 (ip), vehicle: DMSO
[2] = dose: 0.75 mg/kg/injection, schedule: Q01DX009 (ip), vehicle: DMSO
[3] = dose: 1.5 mg/kg/injection, schedule: Q01DX009 (ip), vehicle: DMSO
[4] = dose: 3.0 mg/kg/injection, schedule: Q01DX009 (ip), vehicle: DMSO
[5] = dose: 64.0 mg/kg/injection, schedule: Q02DX009 (ip), vehicle: saline
[6] = dose: 200.0 mg/kg/injection, schedule: Q01DX009 (ip), vehicle: saline

## CCN1/C(=C/C(C)=C/c2sc3ccccc3[n+]2CC)Sc2ccccc21
dose: 0.2 mg/kg/injection, schedule: Q01DX009 (ip), vehicle: saline with Tween-80
  survivor count: 4 of 6
dose: 0.4 mg/kg/injection, schedule: Q01DX009 (ip), vehicle: saline with Tween-80
  survivor count: 5 of 6

## CC(NC(=O)CN(C)C(=O)OCc1ccccc1)C(=O)O (configuration not stated)
dose: 400.0 mg/kg/injection, schedule: Q01DX009 (ip), vehicle: saline with Tween-80
  survivor count: 10 of 10

## CCCCCCCCCCCCCCCCCCNC(=O)Nc1ccccc1[N+](=O)[O-]
[1]
  survivor count: 10 of 10
[2]
  survivor count: 9 of 9
[3]
  survivor count: 8 of 9 and 10 of 10
[4]
  survivor count: 10 of 10
dose: 6.0 mg/kg/injection, schedule: Q01DX009 (ip), vehicle: DMSO
  survivor count: 9 of 10
dose: 12.0 mg/kg/injection, schedule: Q01DX009 (ip), vehicle: DMSO
  survivor count: 10 of 10
dose: 100.0 mg/kg/injection, schedule: Q04DX003 (ip), vehicle: DMSO
  survivor count: 10 of 10
dose: 200.0 mg/kg/injection, schedule: Q04DX003 (ip), vehicle: DMSO
  survivor count: 10 of 10
dose: 400.0 mg/kg/injection, schedule: Q04DX003 (ip), vehicle: DMSO
  survivor count: 7 of 10

## Cc1ccc(C#N)s1
dose: 50.0 mg/kg/injection, schedule: Q01DX009 (ip), vehicle: other
  survivor count: 2 of 10

## Cn1c(O)c(C=N)c(=O)[nH]c1=O
dose: 150.0 mg/kg/injection, schedule: Q01DX009 (ip), vehicle: Klucel (hydroxypropylcellulose) (HPC)
  survivor count: 10 of 10

## Oc1ccccc1C=NCC[N-]CCN=Cc1ccccc1O.[Cu+]
dose: 1.56 mg/kg/injection, schedule: Q01DX009 (ip), vehicle: Klucel (hydroxypropylcellulose) (HPC)
  survivor count: 10 of 10
dose: 3.13 mg/kg/injection, schedule: Q01DX009 (ip), vehicle: Klucel (hydroxypropylcellulose) (HPC)
  survivor count: 9 of 10
dose: 6.25 mg/kg/injection, schedule: Q01DX009 (ip), vehicle: Klucel (hydroxypropylcellulose) (HPC)
  survivor count: 2 of 10

## CC1CN1P1(N2CC2C)=NP(N2CC2C)(N2CC2C)=NP(N2CC2C)(N2CC2C)=N1 (configuration not stated)
dose: 3.12 mg/kg/injection, schedule: Q01DX009 (ip), vehicle: saline
  survivor count: 10 of 10
dose: 8.0 mg/kg/injection, schedule: Q01DX009 (ip), vehicle: saline
  T/C: 125 % of control
dose: 16.0 mg/kg/injection, schedule: Q01DX009 (ip), vehicle: saline
  T/C: 128 % of control
dose: 32.0 mg/kg/injection, schedule: Q01DX009 (ip), vehicle: saline
  T/C: 135 % of control
dose: 32.0 mg/kg/injection, schedule: Q02DX009 (ip), vehicle: saline
  T/C: 125 and 126 % of control [8 of 10 alive]
dose: 50.0 mg/kg/injection, schedule: Q01DX009 (ip), vehicle: saline
  survivor count: 5 of 10
dose: 64.0 mg/kg/injection, schedule: Q01DX009 (ip), vehicle: saline
  T/C: 130 % of control
[5]
  T/C: 135 % of control
  survivor count: 10 of 10
dose: 100.0 mg/kg/injection, schedule: Q01DX009 (ip), vehicle: saline
  survivor count: 10 of 10
[6]
  survivor count: 0 of 10

## O=C(Nc1ccccc1C(F)(F)F)C(c1ccccc1)c1ccccc1
dose: 100.0 mg/kg/injection, schedule: Q01DX009 (ip), vehicle: Klucel (hydroxypropylcellulose) (HPC)
  survivor count: 10 of 10
dose: 200.0 mg/kg/injection, schedule: Q01DX009 (ip), vehicle: Klucel (hydroxypropylcellulose) (HPC)
  survivor count: 10 of 10
dose: 400.0 mg/kg/injection, schedule: Q01DX009 (ip), vehicle: Klucel (hydroxypropylcellulose) (HPC)
  survivor count: 10 of 10

## Cc1c2cc[n+](C)c(C)c2cc2c1[nH]c1ccccc12
dose: 80.0 mg/kg/injection, schedule: Q04DX003 (ip), vehicle: water
  survivor count: 9 of 10
dose: 160.0 mg/kg/injection, schedule: Q04DX003 (ip), vehicle: water
  survivor count: 2 of 10

## CC(C)(C)OC(=O)NCC(=O)NCC(=O)O (Boc-Gly-Gly-OH)
[6]
  survivor count: 10 of 10
dose: 400.0 mg/kg/injection, schedule: Q01DX009 (ip), vehicle: saline
  survivor count: 10 of 10

## CC12CC3OC(=O)C1COC14OC5(C2C1=O)C(O)(CCC1C4CC(O)C2(O)CC=CC(=O)C12C)C(=O)OC35C (configuration not stated)
dose: 48.0 mg/kg/injection, schedule: Q01DX009 (ip), vehicle: Klucel (hydroxypropylcellulose) (HPC)
  T/C: 129 % of control [8 of 10 alive]

## CC(=O)O[C@@H]1CO[C@H]2O[C@H]3[C@@H](C(C=O)=C[C@H](O)[C@@H]4C5=C(C(C)C)CC[C@]5(C)CC[C@@]34C)[C@@]2(O)C1=O
dose: 1.5 mg/kg/injection, schedule: Q01DX009 (ip), vehicle: Klucel (hydroxypropylcellulose) (HPC)
  survivor count: 10 of 10
dose: 3.0 mg/kg/injection, schedule: Q01DX009 (ip), vehicle: Klucel (hydroxypropylcellulose) (HPC)
  survivor count: 9 of 10
dose: 6.0 mg/kg/injection, schedule: Q01DX009 (ip), vehicle: Klucel (hydroxypropylcellulose) (HPC)
  survivor count: 3 of 10
dose: 12.0 mg/kg/injection, schedule: Q01DX009 (ip), vehicle: Klucel (hydroxypropylcellulose) (HPC)
  survivor count: 4 of 10
dose: 24.0 mg/kg/injection, schedule: Q01DX009 (ip), vehicle: Klucel (hydroxypropylcellulose) (HPC)
  survivor count: 0 of 10
dose: 25.0 mg/kg/injection, schedule: Q01DX009 (ip), vehicle: Klucel (hydroxypropylcellulose) (HPC)
  survivor count: 2 of 10
dose: 50.0 mg/kg/injection, schedule: Q01DX009 (ip), vehicle: Klucel (hydroxypropylcellulose) (HPC)
  survivor count: 0 of 10

## c1ccc(N/N=C2/CCN3CCCc4cccc2c43)cc1
dose: 0.05 mg/kg/injection, schedule: Q04DX003 (ip), vehicle: DMSO
  survivor count: 8 of 10
dose: 0.1 mg/kg/injection, schedule: Q04DX003 (ip), vehicle: DMSO
  survivor count: 10 of 10
dose: 0.18 mg/kg/injection, schedule: Q01DX009 (ip), vehicle: DMSO
  survivor count: 10 of 10
dose: 0.2 mg/kg/injection, schedule: Q04DX003 (ip), vehicle: DMSO
  survivor count: 10 of 10
[1]
  survivor count: 10 of 10
dose: 0.4 mg/kg/injection, schedule: Q04DX003 (ip), vehicle: DMSO
  survivor count: 10 of 10
[2]
  survivor count: 10 of 10
dose: 0.75 mg/kg/injection, schedule: Q04DX003 (ip), vehicle: DMSO
  survivor count: 10 of 10
[3]
  survivor count: 10 of 10
dose: 1.5 mg/kg/injection, schedule: Q04DX003 (ip), vehicle: DMSO
  survivor count: 10 of 10
[4]
  survivor count: 10 of 10
dose: 3.0 mg/kg/injection, schedule: Q04DX003 (ip), vehicle: DMSO
  survivor count: 9 of 9
dose: 6.0 mg/kg/injection, schedule: Q04DX003 (ip), vehicle: DMSO
  survivor count: 10 of 10
dose: 6.25 mg/kg/injection, schedule: Q04DX003 (ip), vehicle: DMSO
  survivor count: 10 of 10
dose: 12.5 mg/kg/injection, schedule: Q01DX009 (ip), vehicle: DMSO
  survivor count: 5 of 8 and 10 of 10
dose: 12.5 mg/kg/injection, schedule: Q04DX003 (ip), vehicle: DMSO
  survivor count: 10 of 10
dose: 25.0 mg/kg/injection, schedule: Q01DX009 (ip), vehicle: DMSO
  survivor count: 5 of 10 and 10 of 10
dose: 25.0 mg/kg/injection, schedule: Q04DX003 (ip), vehicle: DMSO
  survivor count: 10 of 10
dose: 50.0 mg/kg/injection, schedule: Q01DX009 (ip), vehicle: DMSO
  survivor count: 5 of 10 and 9 of 10
dose: 50.0 mg/kg/injection, schedule: Q04DX003 (ip), vehicle: DMSO
  survivor count: 10 of 10
dose: 100.0 mg/kg/injection, schedule: Q01DX009 (ip), vehicle: DMSO
  survivor count: 0 of 10 and 7 of 10
dose: 6.0 micrograms/kg/injection, schedule: Q01DX009 (ip), vehicle: DMSO
  survivor count: 10 of 10
dose: 12.0 micrograms/kg/injection, schedule: Q01DX009 (ip), vehicle: DMSO
  survivor count: 10 of 10
dose: 50.0 micrograms/kg/injection, schedule: Q01DX009 (ip), vehicle: DMSO
  survivor count: 10 of 10
